At least one structure is not confirmed: it was looked up by name or label, or the drawing left a doubt.
Experiment: Stereo-microscopic observation of drug-containing hydrophilic matrix films and gels (finely-dispersed state / precipitation)
Format: physicochemical
Set-up: key: ∘: contained in a finely-dispersed state; Δ: partially precipitated
Conditions: gelatin film cast from HFIP, stereo microscope
Protocol: The term “in a finely-dispersed state” used herein refers to a condition in which the contained poorly water-soluble drug, which is a compound of a size that cannot be detected with a stereo microscope (MZ16A produced by Leica), is uniformly dispersed in a matrix, or a condition in which such a drug is in a molecular dispersion state in a matrix.
Paclitaxel (produced by LCL laboratories) was used as a poorly water-soluble compound. […] 1,1,1,3,3,3-hexafluoro-2-propanol solution (HFIP; 200 μL) containing paclitaxel (1 mg/mL) and gelatin (100 mg/mL; PSK gelatin produced by Nippi Inc.) was coated on a polypropylene dish (2 cm×2 cm×500 μm), followed by drying at an ordinary temperature for 15 hours. Thus, a paclitaxel-containing gelatin film was produced.
Upon observation with a stereo microscope (produced by Leica, MZ16A), precipitation of paclitaxel was not observed. […] In addition, the gel produced with HFIP and subjected to crosslinking with transglutaminase and water swelling was transparent.
Observation was carried out in the same manner as in Example 2.
Drug-containing gelatin films were produced in the same manner as in Example 1 except that paclitaxel used in Example 1 was replaced by drugs with concentrations listed in Table 1 below. Observation was carried out in the same manner as in Example 2. […]

CO[C@H]1C[C@@H]2CC[C@@H](C)[C@@](O)(O2)C(=O)C(=O)N2CCCC[C@H]2C(=O)O[C@H]([C@H](C)C[C@@H]2CC[C@@H](O)[C@H](OC)C2)CC(=O)[C@H](C)/C=C(\C)[C@@H](O)[C@@H](OC)C(=O)[C@H](C)C[C@H](C)/C=C/C=C/C=C/1C [Rapamycin]
∘: State of drug in gelatin film, Drug/gelatin mass proportion 0.1% (drug/gelatin 0.1%) | State of drug in gelatin film, Drug/gelatin mass proportion 1.0% (drug/gelatin 1.0%) | State of drug in gelatin film, Drug/gelatin mass proportion 5.0% (drug/gelatin 5.0%)

Source: US8980323B2, “Hydrophilic matrix containing poorly water-soluble compound and method for producing the same” (FUJIFILM Corporation, priority 2006, dated 2015)
